PubChem BioAssay AID743121 | NCATS, 2013
The deposit covers about 26,000 reagents; below is an unselected part. 167 of them (0.63%) were called active. 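Calls are per gene from RSA p-values that are not deposited; an individual active-marked siRNA can sensitise only weakly.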 Entries without a mark were called inactive. The numbers tell different reagents against one gene apart. Further read-outs or replicates are left out here.

Screen: 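Knock-downs that sensitise breast cancer cells to camptothecin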 (primary screen)
Cells: MDA-MB-231 cells, a human breast cancer line
Knock-down reagent: single siRNA against human genes, 20 nM siRNA (0.8 pmol per well)
Time to read-out: 120 h (drug added 48 h after transfection, read 72 h later)
Challenge: camptothecin 20 nM (about EC30) for 72 h; vehicle 0.1% DMSO in parallel plates
Measured: 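Cell viability by ATP luminescence (CellTiter-Glo) as % of non-targeting siRNA wells, and the log2 ratio of viability without drug over viability with camptothecin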
Direction: log2 vehicle/camptothecin viability: higher = stronger sensitisation to camptothecin; viability with camptothecin: higher = more viable cells
Active means: 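Each gene scored by redundant siRNA activity (RSA) over its individual siRNA ratios; a gene is called active at p < 0.001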

KCNN1 #1 | log2 vehicle/camptothecin viability = -0.249; viability with camptothecin (% of control) = 71.3
KCNN1 #2 | log2 vehicle/camptothecin viability = 0.158; viability with camptothecin (% of control) = 51.3
KCNN1 #3 | log2 vehicle/camptothecin viability = -0.491; viability with camptothecin (% of control) = 52.1
KCNN1 #4 | log2 vehicle/camptothecin viability = -0.55; viability with camptothecin (% of control) = 57.8
EGR2 #1 | log2 vehicle/camptothecin viability = 0.12; viability with camptothecin (% of control) = 70.4
EGR2 #2 | log2 vehicle/camptothecin viability = 0.0478; viability with camptothecin (% of control) = 52.5
EGR2 #3 | log2 vehicle/camptothecin viability = -0.187; viability with camptothecin (% of control) = 91.1
EGR2 #4 | log2 vehicle/camptothecin viability = 0.0285; viability with camptothecin (% of control) = 99.7
AKT2 #1 | log2 vehicle/camptothecin viability = -0.147; viability with camptothecin (% of control) = 41.1
AKT2 #2 | log2 vehicle/camptothecin viability = -0.292; viability with camptothecin (% of control) = 80.3
AKT2 #3 | log2 vehicle/camptothecin viability = -0.41; viability with camptothecin (% of control) = 71.9
AKT2 #4 | log2 vehicle/camptothecin viability = -0.137; viability with camptothecin (% of control) = 87.5
DNASE2 #1 | log2 vehicle/camptothecin viability = -0.165; viability with camptothecin (% of control) = 78.4
DNASE2 #2 | log2 vehicle/camptothecin viability = -0.191; viability with camptothecin (% of control) = 118
DNASE2 #3 | log2 vehicle/camptothecin viability = -0.483; viability with camptothecin (% of control) = 67.5
DNASE2 #4 | log2 vehicle/camptothecin viability = 0.244; viability with camptothecin (% of control) = 47.2

Just “viability with camptothecin (% of control)” (2 entries from above):
AKT2 #4	87.5
DNASE2 #1	78.4
